Results are given in words; binding and its absence hold for the method and conditions named. Binding seen in cells or lysates may run through a third protein. Some results given as binding are weak or reduced against the parent protein; the word gives no strength.

Protein sequences, listed by entry. Tags and fused reporters are not part of them.
UniProt O15054: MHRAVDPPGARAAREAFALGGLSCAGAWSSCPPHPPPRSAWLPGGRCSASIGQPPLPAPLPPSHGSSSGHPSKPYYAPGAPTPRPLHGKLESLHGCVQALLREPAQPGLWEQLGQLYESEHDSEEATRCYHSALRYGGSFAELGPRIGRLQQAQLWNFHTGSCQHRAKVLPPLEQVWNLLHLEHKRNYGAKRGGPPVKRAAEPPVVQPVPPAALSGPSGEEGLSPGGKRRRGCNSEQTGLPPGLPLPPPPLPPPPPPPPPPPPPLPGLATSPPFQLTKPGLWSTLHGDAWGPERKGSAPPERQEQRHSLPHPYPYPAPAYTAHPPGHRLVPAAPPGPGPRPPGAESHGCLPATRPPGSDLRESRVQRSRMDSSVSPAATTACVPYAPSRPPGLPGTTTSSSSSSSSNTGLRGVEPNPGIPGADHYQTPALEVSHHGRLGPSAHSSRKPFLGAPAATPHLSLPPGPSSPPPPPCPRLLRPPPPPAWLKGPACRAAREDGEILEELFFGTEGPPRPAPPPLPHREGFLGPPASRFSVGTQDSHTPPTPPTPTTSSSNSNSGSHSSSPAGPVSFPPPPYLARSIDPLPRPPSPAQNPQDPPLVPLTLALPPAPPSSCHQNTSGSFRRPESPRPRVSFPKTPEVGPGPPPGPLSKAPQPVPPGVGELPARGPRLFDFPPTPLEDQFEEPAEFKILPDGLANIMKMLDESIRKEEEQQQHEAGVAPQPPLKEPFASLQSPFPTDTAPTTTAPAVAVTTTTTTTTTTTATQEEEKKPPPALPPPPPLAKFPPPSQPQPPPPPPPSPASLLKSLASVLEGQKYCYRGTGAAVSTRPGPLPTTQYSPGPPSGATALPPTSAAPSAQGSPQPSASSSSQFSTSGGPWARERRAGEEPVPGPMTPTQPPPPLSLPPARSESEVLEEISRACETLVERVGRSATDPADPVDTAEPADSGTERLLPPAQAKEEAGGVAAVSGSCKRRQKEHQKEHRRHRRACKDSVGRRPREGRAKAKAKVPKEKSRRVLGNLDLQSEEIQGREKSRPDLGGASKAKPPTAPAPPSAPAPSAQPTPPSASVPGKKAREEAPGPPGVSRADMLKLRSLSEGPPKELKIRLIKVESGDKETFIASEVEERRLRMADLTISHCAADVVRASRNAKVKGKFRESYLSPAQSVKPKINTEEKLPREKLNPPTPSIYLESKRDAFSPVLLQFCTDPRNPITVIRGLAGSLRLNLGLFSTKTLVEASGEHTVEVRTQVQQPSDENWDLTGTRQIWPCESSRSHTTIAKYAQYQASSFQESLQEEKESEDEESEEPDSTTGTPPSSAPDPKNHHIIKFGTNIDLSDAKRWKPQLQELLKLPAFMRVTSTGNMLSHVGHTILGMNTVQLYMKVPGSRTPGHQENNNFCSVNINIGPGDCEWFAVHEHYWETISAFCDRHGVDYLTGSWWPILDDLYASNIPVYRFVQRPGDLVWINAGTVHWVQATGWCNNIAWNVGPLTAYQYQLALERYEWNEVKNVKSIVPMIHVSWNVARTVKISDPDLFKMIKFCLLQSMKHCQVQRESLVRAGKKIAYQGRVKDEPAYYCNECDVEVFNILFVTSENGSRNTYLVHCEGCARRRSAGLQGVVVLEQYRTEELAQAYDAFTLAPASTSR

For this experiment, the target named is KDM6B (human (endogenous in IMR32)) (UniProt O15054). As to the kind of experiment: co-IP.

B1: AKNA (protein, UniProt Q7Z591 1-1439)
chain: MASSETEIRWAEPGLGKGPQRRRWAWAEDKRDVDRSSSQSWEEERLFPNATSPELLEDFRLAQQHLPPLEWDPHPQPDGHQDSESGETSGEEAEAEDVDSPASSHEPLAWLPQQGRQLDMTEEEPDGTLGSLEVEEAGESSSRLGYEAGLSLEGHGNTSPMALGHGQARGWVASGEQASGDKLSEHSEVNPSVELSPARSWSSGTVSLDHPSDSLDSTWEGETDGPQPTALAETLPEGPSHHLLSPDGRTGGSVARATPMEFQDSSAPPAQSPQHATDRWRRETTRFFCPQPKEHIWKQTKTSPKPLPSRFIGSISPLNPQPRPTRQGRPLPRQGATLAGRSSSNAPKYGRGQLNYPLPDFSKVGPRVRFPKDESYRPPKSRSHNRKPQAPARPLIFKSPAEIVQEVLLSSGEAALAKDTPPAHPITRVPQEFQTPEQATELVHQLQEDYHRLLTKYAEAENTIDQLRLGAKVNLFSDPPQPNHSIHTGMVPQGTKVLSFTIPQPRSAEWWPGPAEDPQASAASGWPSARGDLSPSSLTSMPTLGWLPENRDISEDQSSAEQTQALASQASQFLAKVESFERLIQAGRLMPQDQVKGFQRLKAAHAALEEEYLKACREQHPAQPLAGSKGTPGRFDPRRELEAEIYRLGSCLEELKEHIDQTQQEPEPPGSDSALDSTPALPCLHQPTHLPAPSGQAPMPAIKTSCPEPATTTAAASTGPCPLHVNVEVSSGNSEVEDRPQDPLARLRHKELQMEQVYHGLMERYLSVKSLPEAMRMEEEEEGEEEEEEEGGGDSLEVDGVAATPGKAEATRVLPRQCPVQAEKSHGAPLEEATEKMVSMKPPGFQASLARDGHMSGLGKAEAAPPGPGVPPHPPGTKSAASHQSSMTSLEGSGISERLPQKPLHRGGGPHLEETWMASPETDSGFVGSETSRVSPLTQTPEHRLSHISTAGTLAQPFAASVPRDGASYPKARGSLIPRRATEPSTPRSQAQRYLSSPSGPLRQRAPNFSLERTLAAEMAVPGSEFEGHKRISEQPLPNKTISPPPAPAPAAAPLPCGPTETIPSFLLTRAGRDQAICELQEEVSRLRLRLEDSLHQPLQGSPTRPASAFDRPARTRGRPADSPATWGSHYGSKSTERLPGEPRGEEQIVPPGRQRARSSSVPREVLRLSLSSESELPSLPLFSEKSKTTKDSPQAARDGKRGVGSAGWPDRVTFRGQYTGHEYHVLSPKAVPKGNGTVSCPHCRPIRTQDAGGAVTGDPLGPPPADTLQCPLCGQVGSPPEADGPGSATSGAEKATTRRKASSTPSPKQRSKQAGSSPRPPPGLWYLATAPPAPAPPAFAYISSVPIMPYPPAAVYYAPAGPTSAQPAAKWPPTASPPPARRHRHSIQLDLGDLEELNKALSRAVQAAESVRSTTRQMRSSLSADLRQAHSLRGSCLF
For the molecule B1, the binding result is listed as “binds”.

(Values after doi:10.1101/2025.09.15.676257.)
